Data on one molecule can be found in paper PMC8915595, “Revisiting the application of Immobilized Artificial Membrane (IAM) chromatography to estimate in vivo distribution properties of drug discovery compounds based on the model of marketed drugs” (ADMET & DMPK, 2020).

By UniProt entry, the sequences of proteins in these tests, tags left out. Residues count along the entry.
UniProt P02768, 25-609: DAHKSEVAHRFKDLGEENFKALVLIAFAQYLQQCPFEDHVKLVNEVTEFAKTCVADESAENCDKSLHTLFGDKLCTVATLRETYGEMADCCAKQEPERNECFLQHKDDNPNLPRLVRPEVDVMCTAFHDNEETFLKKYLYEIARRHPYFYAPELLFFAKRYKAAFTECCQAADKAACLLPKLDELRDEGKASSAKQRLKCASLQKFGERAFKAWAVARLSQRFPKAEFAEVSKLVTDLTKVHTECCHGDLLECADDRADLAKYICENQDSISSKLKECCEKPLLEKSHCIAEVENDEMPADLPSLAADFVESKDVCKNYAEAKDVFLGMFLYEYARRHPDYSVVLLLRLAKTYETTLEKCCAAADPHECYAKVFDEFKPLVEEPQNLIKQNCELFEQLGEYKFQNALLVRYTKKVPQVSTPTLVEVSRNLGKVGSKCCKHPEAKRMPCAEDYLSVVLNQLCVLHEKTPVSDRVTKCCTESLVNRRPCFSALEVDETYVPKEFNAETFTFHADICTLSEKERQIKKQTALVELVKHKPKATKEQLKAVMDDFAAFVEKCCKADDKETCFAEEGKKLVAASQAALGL

Data set [1] is described as follows: IAM chromatography on new IAM.PC.DD2 columns (gradient HPLC, CHI (IAM)). Format: physicochemical. The arrangement: key to P20511-014-3 CHI (IAM): CHI (IAM) from retention times calibrated to predefined CHI standards. On the procedure: The IAM binding was measured using IAM.PC.DD2 HPLC columns (Regis Technologies, Inc., IL, USA) with dimensions of 100 x 4.6 mm, particle size 10 μm with 300 Å pore size.
Two batches of IAM.PC.DD2 columns were studied (R20511-014-3 and P20511-014-3) that had been prepared using the new batches of silica support.
The retention times were standardized using the IAM calibration mixture, containing octanophenone, heptanophenone, hexanophenone, valerophenone, butyrophenone, propiophenone, acetophenone, acetanilide and paracetamol. The retention times of the compounds were plotted against the isocratically determined and predefined CHI (IAM) values listed in Table 1. The slope and intercept of the obtained straight line was used to calculate the CHI IAM values of new compounds.

For data set [2], the target named is T1, human serum albumin (HSA) (Homo sapiens, UniProt P02768). The conditions noted are these: cited from earlier work.
Data set [3] deals with T1, human serum albumin (HSA). The data set can be described thus: Protein binding on chemically bonded HSA column (Chiralpak-HSA). The conditions noted are these: remeasured in this study, pH 7.4.

As to `COC(=O)C1=C(C)NC(C)=C(C(=O)OC)C1c1ccccc1[N+](=O)[O-]` [Nifedipine], the “P20511-014-3 CHI (IAM)” value in data set [1] (new IAM.PC.DD2 column batch P20511-014-3, pH 7.4) was found to be 28.16. Besides, in data set [1] (new IAM.PC.DD2 column batch R20511-014-3, pH 7.4), the “R20511-014-3 CHI (IAM)” value came to 28.11. For the same molecule, the “log K HSA from ref [13]” value in data set [2] was 3.13. For the same molecule, in data set [3], the “log K HSA” value is 3.37.
